For one substance, binding results are on record in article doi:10.1101/2024.05.27.596010.

Protein sequences, listed by entry. Tags and fused reporters are not part of them. Lines headed by an entry give the natural chain unless they say otherwise; changes in a name come on top.
UniProt P02545: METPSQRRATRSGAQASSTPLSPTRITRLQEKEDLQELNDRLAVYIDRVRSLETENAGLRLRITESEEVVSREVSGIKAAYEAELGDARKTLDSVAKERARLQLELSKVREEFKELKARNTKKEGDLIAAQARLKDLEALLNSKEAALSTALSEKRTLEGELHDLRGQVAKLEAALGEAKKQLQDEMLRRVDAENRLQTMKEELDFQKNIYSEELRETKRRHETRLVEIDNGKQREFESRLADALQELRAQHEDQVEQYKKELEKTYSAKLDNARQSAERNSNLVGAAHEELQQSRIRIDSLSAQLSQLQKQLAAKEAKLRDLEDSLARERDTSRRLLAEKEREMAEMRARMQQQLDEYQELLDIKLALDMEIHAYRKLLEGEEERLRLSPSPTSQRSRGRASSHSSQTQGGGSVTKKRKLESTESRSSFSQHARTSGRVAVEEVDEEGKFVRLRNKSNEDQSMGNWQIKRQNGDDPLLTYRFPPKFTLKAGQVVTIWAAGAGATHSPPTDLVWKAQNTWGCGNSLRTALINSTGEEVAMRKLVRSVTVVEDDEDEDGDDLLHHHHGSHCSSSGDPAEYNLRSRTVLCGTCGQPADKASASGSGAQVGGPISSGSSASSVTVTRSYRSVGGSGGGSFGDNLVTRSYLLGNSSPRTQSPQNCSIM
UniProt P22216: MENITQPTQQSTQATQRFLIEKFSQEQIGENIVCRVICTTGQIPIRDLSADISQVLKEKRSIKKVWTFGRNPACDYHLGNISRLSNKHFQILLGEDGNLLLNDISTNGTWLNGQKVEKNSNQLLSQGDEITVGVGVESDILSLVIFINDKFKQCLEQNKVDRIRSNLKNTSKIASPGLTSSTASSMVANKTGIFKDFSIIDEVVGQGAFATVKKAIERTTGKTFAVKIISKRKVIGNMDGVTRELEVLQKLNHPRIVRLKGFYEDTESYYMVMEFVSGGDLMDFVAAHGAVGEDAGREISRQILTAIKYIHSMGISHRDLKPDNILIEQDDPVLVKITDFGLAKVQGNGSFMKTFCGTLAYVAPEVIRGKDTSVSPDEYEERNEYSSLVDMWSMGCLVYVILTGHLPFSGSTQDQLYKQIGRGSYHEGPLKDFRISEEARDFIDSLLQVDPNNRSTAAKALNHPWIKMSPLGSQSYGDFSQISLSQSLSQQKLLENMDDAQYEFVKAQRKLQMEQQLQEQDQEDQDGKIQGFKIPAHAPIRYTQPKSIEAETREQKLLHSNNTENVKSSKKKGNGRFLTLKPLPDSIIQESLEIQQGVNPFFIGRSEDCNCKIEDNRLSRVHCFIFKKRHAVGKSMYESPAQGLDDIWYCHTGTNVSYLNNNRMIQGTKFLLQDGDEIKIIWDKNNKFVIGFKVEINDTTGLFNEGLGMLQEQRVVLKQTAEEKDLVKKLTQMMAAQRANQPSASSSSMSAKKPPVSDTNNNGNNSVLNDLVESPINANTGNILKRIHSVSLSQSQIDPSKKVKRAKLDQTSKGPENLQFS

These are yes or no findings as the source states them, for the method shown. Binding seen in cells or lysates may run through a third protein. Binding calls can cover weak binding; strength is not graded here.

The target of this assay is full-length lamin A S392A of the S392A LAPS mutant biosensor (UniProt P02545). Description: FRET or BRET. Background: BRET reads energy transfer from a luciferase to a nearby fluorophore.

Regarding “FHA2 domain of the lamin A phosphorylation sensor (LAPS), wild type (from UniProt P22216) (domain or fragment)”, the binding result was “binds”.
